System: Granulocytes/polymorphonuclear (PMN) cells
Test: H2O2 measurement, cell-based antioxidant protection in granulocytes/polymorphonuclear (PMN) cells assay
Description: H2O2 Measurement (Cell-Based Antioxidant Protection in Granulocytesipolymorphonuclear—PMN Cells Assay)

O=C(O)C1=CC(=O)[C@@H](O)[C@H](O)C1 [3-dehydroshikimic acid]
Enhancement of anti-inflammatory and anti-oxidative activity of other components: enhancement effect could be seen | Inhibitory action (in words): shows inhibitory action

— patent US11033596B2, “Antioxidant, anti-inflammatory compositions and uses thereof” (Malaysian Palm Oil Board, priority 2017, dated 2021)
